We go through two substances from PMC6056059.

Protein sequences, listed by entry. Tags and fused reporters are not part of them. Lines headed by an entry give the natural chain unless they say otherwise; changes in a name come on top.
UniProt Q99MQ1: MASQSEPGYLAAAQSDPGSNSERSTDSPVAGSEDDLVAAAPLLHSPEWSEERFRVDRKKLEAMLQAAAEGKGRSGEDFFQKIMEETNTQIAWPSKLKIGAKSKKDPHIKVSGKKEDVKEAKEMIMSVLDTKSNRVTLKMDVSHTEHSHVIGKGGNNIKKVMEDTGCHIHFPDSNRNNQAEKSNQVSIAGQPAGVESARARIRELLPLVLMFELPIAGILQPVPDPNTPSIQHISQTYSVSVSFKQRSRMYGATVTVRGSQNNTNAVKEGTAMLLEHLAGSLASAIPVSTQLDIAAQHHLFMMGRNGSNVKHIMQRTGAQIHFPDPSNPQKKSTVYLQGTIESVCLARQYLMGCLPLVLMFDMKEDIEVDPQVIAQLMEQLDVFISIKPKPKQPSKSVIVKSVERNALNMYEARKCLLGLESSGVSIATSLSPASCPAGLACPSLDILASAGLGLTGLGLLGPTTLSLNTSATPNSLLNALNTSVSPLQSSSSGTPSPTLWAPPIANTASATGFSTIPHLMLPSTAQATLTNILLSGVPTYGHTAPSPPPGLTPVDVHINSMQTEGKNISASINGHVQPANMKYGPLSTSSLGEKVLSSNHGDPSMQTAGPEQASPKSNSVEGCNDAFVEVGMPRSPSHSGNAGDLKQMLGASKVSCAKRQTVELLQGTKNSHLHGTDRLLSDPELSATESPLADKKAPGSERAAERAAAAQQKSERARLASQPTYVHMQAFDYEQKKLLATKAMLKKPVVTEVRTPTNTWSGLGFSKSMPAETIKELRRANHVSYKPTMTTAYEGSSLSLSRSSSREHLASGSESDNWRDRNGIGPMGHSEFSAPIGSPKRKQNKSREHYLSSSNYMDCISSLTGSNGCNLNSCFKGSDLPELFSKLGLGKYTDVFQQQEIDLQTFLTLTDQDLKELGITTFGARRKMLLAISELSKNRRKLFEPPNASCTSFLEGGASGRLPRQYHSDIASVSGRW
UniProt Q8IUR7: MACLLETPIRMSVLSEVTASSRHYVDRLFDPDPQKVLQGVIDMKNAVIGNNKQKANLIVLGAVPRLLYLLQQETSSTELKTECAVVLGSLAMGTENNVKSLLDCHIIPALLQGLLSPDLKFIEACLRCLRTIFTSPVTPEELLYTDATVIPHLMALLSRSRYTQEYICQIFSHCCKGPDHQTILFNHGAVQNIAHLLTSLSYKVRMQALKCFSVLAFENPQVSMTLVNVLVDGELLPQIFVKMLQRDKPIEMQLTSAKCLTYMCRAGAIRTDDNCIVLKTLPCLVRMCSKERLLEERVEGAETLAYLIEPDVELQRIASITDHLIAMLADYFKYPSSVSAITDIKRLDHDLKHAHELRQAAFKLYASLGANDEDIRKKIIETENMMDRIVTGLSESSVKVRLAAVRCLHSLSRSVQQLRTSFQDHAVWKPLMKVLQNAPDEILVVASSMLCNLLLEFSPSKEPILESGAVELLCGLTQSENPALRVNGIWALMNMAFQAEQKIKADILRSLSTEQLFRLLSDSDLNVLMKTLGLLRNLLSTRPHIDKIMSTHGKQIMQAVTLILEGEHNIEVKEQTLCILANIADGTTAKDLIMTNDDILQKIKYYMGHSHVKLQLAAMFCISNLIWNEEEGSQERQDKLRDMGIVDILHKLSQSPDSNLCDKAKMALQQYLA
UniProt Q9H7D7: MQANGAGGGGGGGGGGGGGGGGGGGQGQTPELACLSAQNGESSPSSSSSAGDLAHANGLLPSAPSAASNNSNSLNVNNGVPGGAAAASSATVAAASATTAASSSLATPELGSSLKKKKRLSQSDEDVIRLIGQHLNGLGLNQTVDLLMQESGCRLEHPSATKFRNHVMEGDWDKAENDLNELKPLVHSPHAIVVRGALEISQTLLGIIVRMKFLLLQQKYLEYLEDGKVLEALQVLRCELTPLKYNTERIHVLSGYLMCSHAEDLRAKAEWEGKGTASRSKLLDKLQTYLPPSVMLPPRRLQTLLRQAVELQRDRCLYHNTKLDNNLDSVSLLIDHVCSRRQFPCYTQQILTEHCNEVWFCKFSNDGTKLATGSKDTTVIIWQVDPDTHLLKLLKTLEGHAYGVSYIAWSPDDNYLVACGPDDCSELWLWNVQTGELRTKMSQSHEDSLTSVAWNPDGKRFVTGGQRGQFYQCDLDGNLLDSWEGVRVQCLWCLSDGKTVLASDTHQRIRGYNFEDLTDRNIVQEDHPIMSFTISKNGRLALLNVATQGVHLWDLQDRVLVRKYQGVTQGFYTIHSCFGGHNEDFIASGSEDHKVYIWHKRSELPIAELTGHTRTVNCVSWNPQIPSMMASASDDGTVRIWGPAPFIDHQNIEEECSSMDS

Results are given in words; binding and its absence hold for the method and conditions named. Binding seen in cells or lysates may run through a third protein. Binding can be weak; no strength is given.

Targets include HA-Bicc1 MutA (mouse) (UniProt Q99MQ1); HA-Bicc1 MutC (mouse) (UniProt Q99MQ1); HA-Bicc1 MutE (mouse) (UniProt Q99MQ1); HA-Bicc1 MutF (mouse) (UniProt Q99MQ1).
Common to all, as to assay: co-IP; transfected HEK293T extracts (TBS, 1 mM DTT, 0.05% NP-40); anti-HA agarose, anti-FLAG M2 gel or anti-MKLN1; 2 hrs at 4°C; Western blot; mock-transfected cells or pre-immune IgG as control; in Fig 6E with or without cotransfected Flag-ANKS3 or Flag-ANKS3ΔC
Background: Immunoblotting shows a protein as a band on a membrane.

With “Armadillo repeat containing 8 (ARMC8), endogenous in HEK293 cells (from UniProt Q8IUR7 1-673)”, the binding entry with HA-Bicc1 MutA (mouse), with HA-Bicc1 MutC (mouse), with HA-Bicc1 MutE (mouse) and in the test with HA-Bicc1 MutF (mouse) was “binds” in each case.
For the substance “WD repeat-containing protein 26 (WDR26), endogenous in HEK293 cells (from UniProt Q9H7D7 1-661)”, the binding result in the test with HA-Bicc1 MutA (mouse) was “binds”; with HA-Bicc1 MutC (mouse) it was “binds weakly”; in the test with HA-Bicc1 MutE (mouse), “binds weakly”; with HA-Bicc1 MutF (mouse), “binds”.
